Test results as given in PubChem BioAssay AID487 (Columbia University Molecular Screening Center, 2006).
The list shows a part of the results. Some results for these compounds are left out of this collection, so the calls shown say nothing about other tests.

Test: inhibitors of E-selectin induction by TNFa, primary screen, imaging, HUVEC, immunofluorescence, MLSMR starter and 10KST1 sets (AID 487);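 also: 100% = median nuclei count of all wells on the same plate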
Conditions: HUVEC TNFalpha-induced E-selectin immunofluorescence imaging; measured here: cell number, toxicity; at 2 µM

**Q.** Which nuclei count does the source give for `O=C(OC1CN2CCC1CC2)C(CO)(c1ccccc1)c1ccccc1` (stereo unspecified) here?
**A.** 115%
